According to article PMC7850985:
These are yes or no findings as the source states them, for the method shown. In cells and extracts the contact can be indirect. These calls come from enrichment with a bait or labelling near it, and not all partners need be listed.

The chains behind the UniProt entries cited, without tags or fusion partners. Residues count along the entry.
UniProt P35247, residues 199-375: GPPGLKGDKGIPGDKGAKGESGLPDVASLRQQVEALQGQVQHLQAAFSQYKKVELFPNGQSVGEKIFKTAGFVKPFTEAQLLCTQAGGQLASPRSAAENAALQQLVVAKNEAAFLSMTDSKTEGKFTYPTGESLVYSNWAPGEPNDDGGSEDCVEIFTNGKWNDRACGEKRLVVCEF
UniProt P08238: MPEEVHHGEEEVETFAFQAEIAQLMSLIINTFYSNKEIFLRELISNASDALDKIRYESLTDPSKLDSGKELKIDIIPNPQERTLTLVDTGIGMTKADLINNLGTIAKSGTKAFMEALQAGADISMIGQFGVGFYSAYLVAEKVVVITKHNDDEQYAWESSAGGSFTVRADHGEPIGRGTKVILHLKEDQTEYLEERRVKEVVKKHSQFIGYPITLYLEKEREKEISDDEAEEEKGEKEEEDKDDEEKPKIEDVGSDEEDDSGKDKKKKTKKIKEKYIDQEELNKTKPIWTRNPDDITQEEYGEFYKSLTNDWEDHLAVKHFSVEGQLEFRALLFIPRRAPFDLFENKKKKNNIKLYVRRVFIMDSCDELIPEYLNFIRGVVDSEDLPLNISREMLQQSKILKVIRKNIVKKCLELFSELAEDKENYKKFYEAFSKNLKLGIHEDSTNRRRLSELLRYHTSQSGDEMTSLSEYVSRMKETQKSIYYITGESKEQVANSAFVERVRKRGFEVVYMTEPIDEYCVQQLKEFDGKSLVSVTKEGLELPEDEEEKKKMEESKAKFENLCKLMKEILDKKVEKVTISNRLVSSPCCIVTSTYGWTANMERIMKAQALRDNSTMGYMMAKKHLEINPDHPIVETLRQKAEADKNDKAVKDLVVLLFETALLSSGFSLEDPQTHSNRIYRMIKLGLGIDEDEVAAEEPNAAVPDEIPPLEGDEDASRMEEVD
UniProt P34932: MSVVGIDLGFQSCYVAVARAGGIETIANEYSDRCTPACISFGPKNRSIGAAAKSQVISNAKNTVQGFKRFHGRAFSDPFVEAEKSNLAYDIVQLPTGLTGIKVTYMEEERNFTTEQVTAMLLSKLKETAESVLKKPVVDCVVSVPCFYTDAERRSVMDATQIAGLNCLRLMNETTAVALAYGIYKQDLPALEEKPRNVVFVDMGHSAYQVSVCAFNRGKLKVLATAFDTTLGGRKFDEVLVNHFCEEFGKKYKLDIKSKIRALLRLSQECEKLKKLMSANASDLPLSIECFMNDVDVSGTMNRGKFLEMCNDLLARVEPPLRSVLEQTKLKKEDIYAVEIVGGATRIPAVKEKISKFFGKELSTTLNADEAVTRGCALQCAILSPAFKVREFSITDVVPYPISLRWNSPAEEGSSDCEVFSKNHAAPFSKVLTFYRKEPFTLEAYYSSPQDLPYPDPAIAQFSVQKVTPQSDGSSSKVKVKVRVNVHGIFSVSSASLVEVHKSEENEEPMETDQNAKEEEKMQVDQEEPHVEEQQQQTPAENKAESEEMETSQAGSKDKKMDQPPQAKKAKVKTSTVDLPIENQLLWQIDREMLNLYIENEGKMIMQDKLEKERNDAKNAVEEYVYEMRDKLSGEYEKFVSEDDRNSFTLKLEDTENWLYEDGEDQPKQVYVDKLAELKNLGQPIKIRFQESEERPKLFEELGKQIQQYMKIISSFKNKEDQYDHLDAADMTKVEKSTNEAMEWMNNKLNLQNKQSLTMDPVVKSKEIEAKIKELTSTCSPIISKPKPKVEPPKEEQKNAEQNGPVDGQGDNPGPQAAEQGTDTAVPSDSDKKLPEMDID
UniProt P14625, residues 22-803: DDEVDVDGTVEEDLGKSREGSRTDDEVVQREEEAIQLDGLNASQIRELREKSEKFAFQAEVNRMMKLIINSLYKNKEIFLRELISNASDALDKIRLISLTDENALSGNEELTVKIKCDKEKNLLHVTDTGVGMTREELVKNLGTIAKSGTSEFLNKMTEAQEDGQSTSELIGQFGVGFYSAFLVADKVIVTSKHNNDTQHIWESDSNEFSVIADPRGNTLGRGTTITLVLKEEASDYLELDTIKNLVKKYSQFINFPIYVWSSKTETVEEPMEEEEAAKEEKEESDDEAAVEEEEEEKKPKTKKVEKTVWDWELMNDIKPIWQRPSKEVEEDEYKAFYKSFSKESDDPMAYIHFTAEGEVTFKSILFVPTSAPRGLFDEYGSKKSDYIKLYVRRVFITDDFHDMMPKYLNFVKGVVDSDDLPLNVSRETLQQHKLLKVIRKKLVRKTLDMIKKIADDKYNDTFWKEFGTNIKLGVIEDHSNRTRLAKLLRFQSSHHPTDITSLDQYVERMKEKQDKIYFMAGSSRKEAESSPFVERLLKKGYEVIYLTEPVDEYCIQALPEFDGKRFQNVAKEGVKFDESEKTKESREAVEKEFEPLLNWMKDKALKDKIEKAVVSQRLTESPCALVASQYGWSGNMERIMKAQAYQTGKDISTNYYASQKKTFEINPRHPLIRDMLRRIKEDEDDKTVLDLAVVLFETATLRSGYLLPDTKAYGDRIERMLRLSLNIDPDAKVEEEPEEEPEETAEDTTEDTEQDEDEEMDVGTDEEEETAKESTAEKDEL
UniProt P48643: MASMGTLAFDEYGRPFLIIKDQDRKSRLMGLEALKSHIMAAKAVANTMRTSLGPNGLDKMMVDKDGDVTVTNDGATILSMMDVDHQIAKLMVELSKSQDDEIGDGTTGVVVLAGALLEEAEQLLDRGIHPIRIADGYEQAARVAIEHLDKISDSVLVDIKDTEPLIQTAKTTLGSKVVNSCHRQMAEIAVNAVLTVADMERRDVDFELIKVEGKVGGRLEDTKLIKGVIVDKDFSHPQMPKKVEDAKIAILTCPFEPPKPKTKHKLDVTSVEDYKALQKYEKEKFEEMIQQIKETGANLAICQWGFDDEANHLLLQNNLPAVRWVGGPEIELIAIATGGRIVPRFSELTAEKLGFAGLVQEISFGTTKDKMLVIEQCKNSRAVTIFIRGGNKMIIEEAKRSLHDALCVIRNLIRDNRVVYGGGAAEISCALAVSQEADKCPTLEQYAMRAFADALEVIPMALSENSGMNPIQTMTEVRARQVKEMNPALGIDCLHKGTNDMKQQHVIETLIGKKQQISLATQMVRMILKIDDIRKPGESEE
UniProt P11142: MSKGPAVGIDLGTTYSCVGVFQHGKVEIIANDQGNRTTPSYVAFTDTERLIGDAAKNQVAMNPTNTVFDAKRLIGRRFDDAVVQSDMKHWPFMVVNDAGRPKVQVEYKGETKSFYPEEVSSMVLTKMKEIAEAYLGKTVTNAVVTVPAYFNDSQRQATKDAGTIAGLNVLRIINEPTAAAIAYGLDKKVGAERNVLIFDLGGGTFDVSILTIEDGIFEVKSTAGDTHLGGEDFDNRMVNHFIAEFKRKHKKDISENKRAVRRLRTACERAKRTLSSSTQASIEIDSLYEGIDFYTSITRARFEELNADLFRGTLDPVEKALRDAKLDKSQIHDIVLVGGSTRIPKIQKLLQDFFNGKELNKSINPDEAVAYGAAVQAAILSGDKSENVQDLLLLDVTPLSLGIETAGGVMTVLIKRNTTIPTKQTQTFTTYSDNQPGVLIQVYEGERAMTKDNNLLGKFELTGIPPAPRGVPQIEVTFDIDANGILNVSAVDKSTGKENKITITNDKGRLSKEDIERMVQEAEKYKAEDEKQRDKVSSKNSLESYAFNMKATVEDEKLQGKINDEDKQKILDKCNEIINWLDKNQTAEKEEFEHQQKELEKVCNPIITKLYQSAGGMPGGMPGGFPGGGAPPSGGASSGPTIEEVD
UniProt P06733: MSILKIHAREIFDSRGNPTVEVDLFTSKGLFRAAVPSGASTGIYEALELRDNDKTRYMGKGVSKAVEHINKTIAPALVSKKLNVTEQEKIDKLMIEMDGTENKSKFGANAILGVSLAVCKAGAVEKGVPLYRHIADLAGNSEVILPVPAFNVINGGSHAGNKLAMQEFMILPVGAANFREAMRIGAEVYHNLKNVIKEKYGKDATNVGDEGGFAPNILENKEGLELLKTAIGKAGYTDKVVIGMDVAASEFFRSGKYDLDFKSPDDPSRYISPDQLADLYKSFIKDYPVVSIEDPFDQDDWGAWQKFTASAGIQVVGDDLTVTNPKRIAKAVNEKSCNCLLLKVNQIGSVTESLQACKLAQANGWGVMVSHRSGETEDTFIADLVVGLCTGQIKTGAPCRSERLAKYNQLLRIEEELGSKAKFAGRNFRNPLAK
UniProt P38646, residues 47-679: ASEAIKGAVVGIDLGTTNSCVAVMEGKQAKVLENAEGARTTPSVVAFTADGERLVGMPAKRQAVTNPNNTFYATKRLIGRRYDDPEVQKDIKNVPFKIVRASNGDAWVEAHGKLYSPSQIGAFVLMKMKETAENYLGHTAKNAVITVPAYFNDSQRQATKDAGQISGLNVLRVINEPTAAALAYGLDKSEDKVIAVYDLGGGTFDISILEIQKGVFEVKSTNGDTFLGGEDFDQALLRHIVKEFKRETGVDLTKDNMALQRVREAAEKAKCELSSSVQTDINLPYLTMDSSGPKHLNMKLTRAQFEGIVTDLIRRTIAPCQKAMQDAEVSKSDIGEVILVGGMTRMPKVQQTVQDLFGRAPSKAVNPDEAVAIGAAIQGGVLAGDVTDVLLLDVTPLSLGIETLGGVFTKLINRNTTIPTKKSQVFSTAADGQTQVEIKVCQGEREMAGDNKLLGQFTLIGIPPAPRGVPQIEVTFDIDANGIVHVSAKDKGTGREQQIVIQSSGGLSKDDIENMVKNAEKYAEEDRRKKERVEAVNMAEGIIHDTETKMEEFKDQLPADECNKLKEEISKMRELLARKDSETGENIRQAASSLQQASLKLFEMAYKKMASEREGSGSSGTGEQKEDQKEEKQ
UniProt Q07021, residues 74-282: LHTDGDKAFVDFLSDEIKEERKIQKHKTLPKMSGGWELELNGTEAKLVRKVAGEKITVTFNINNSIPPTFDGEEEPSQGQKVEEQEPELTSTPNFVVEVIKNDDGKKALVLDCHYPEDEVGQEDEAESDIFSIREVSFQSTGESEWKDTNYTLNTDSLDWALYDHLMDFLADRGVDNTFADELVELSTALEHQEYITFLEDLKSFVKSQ
UniProt P11021, residues 19-654: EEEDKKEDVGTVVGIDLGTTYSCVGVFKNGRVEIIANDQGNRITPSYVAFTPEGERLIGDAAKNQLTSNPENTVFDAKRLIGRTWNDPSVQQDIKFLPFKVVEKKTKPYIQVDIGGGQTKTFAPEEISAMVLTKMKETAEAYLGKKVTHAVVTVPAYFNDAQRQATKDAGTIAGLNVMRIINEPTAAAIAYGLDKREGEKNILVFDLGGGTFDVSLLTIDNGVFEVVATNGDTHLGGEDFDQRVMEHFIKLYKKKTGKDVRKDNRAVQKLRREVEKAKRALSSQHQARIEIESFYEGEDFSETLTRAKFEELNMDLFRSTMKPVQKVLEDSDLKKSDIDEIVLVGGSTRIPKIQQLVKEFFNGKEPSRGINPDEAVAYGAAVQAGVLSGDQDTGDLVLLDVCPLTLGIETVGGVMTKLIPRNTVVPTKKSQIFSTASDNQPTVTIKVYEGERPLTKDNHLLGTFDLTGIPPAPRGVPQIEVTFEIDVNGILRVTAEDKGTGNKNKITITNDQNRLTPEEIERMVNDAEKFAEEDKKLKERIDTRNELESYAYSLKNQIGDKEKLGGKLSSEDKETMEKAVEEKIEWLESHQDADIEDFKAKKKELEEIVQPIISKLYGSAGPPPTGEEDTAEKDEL
UniProt P50990: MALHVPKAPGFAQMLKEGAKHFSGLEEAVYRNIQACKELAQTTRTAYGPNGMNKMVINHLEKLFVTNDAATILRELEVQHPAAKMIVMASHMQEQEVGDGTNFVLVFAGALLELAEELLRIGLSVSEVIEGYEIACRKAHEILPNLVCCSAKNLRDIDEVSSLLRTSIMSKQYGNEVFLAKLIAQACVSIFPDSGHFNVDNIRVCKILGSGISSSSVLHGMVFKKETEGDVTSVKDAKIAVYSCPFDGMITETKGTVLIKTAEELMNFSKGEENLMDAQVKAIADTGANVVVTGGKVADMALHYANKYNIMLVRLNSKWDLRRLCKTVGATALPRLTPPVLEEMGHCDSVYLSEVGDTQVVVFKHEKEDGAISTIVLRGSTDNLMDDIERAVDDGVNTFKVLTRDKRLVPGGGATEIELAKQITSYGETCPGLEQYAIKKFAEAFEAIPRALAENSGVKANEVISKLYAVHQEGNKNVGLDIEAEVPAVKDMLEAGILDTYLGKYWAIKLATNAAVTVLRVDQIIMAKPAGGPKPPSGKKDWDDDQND
UniProt P04406: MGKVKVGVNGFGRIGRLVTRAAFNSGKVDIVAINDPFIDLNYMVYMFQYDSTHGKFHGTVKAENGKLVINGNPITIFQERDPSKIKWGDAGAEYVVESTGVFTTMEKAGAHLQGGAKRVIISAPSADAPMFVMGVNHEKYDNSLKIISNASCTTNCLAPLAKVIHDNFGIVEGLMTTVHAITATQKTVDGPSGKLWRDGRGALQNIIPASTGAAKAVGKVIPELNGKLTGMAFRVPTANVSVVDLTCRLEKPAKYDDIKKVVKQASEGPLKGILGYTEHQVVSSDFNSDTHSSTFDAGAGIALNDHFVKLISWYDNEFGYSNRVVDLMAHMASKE

B1: A2ML1 (α2-macroglobulin-like protein 1) (protein, UniProt A8K2U0 18-1454)
chain: EELPNYLVTLPARLNFPSVQKVCLDLSPGYSDVKFTVTLETKDKTQKLLEYSGLKKRHLHCISFLVPPPAGGTEEVATIRVSGVGNNISFEEKKKVLIQRQGNGTFVQTDKPLYTPGQQVYFRIVTMDSNFVPVNDKYSMVELQDPNSNRIAQWLEVVPEQGIVDLSFQLAPEAMLGTYTVAVAEGKTFGTFSVEEYVLPKFKVEVVEPKELSTVQESFLVKICCRYTYGKPMLGAVQVSVCQKANTYWYREVEREQLPDKCRNLSGQTDKTGCFSAPVDMATFDLIGYAYSHQINIVATVVEEGTGVEANATQNIYISPQMGSMTFEDTSNFYHPNFPFSGKIRVRGHDDSFLKNHLVFLVIYGTNGTFNQTLVTDNNGLAPFTLETSGWNGTDVSLEGKFQMEDLVYNPEQVPRYYQNAYLHLRPFYSTTRSFLGIHRLNGPLKCGQPQEVLVDYYIDPADASPDQEISFSYYLIGKGSLVMEGQKHLNSKKKGLKASFSLSLTFTSRLAPDPSLVIYAIFPSGGVVADKIQFSVEMCFDNQVSLGFSPSQQLPGAEVELQLQAAPGSLCALRAVDESVLLLRPDRELSNRSVYGMFPFWYGHYPYQVAEYDQCPVSGPWDFPQPLIDPMPQGHSSQRSIIWRPSFSEGTDLFSFFRDVGLKILSNAKIKKPVDCSHRSPEYSTAMGAGGGHPEAFESSTPLHQAEDSQVRQYFPETWLWDLFPIGNSGKEAVHVTVPDAITEWKAMSFCTSQSRGFGLSPTVGLTAFKPFFVDLTLPYSVVRGESFRLTATIFNYLKDCIRVQTDLAKSHEYQLESWADSQTSSCLCADDAKTHHWNITAVKLGHINFTISTKILDSNEPCGGQKGFVPQKGRSDTLIKPVLVKPEGVLVEKTHSSLLCPKGKVASESVSLELPVDIVPDSTKAYVTVLGDIMGTALQNLDGLVQMPSGCGEQNMVLFAPIIYVLQYLEKAGLLTEEIRSRAVGFLEIGYQKELMYKHSNGSYSAFGERDGNGNTWLTAFVTKCFGQAQKFIFIDPKNIQDALKWMAGNQLPSGCYANVGNLLHTAMKGGVDDEVSLTAYVTAALLEMGKDVDDPMVSQGLRCLKNSATSTTNLYTQALLAYIFSLAGEMDIRNILLKQLDQQAIISGESIYWSQKPTPSSNASPWSEPAAVDVELTAYALLAQLTKPSLTQKEIAKATSIVAWLAKQHNAYGGFSSTQDTVVALQALAKYATTAYMPSEEINLVVKSTENFQRTFNIQSVNRLVFQQDTLPNVPGMYTLEASGQGCVYVQTVLRYNILPPTNMKTFSLSVEIGKARCEQPTSPRSLTLTIHTSYVGSRSSSNMAIVEVKMLSGFSPMEGTNQLLLQQPLVKKVEFGTDTLNIYLDELIKNTQTYTFTISQSVLVTNLKPATIKVYDYYLPDEQATIQYSDPCE
B2: CCT2 (protein, UniProt P78371 1-535)
chain: MASLSLAPVNIFKAGADEERAETARLTSFIGAIAIGDLVKSTLGPKGMDKILLSSGRDASLMVTNDGATILKNIGVDNPAAKVLVDMSRVQDDEVGDGTTSVTVLAAELLREAESLIAKKIHPQTIIAGWREATKAAREALLSSAVDHGSDEVKFRQDLMNIAGTTLSSKLLTHHKDHFTKLAVEAVLRLKGSGNLEAIHIIKKLGGSLADSYLDEGFLLDKKIGVNQPKRIENAKILIANTGMDTDKIKIFGSRVRVDSTAKVAEIEHAEKEKMKEKVERILKHGINCFINRQLIYNYPEQLFGAAGVMAIEHADFAGVERLALVTGGEIASTFDHPELVKLGSCKLIEEVMIGEDKLIHFSGVALGEACTIVLRGATQQILDEAERSLHDALCVLAQTVKDSRTVYGGGCSEMLMAHAVTQLANRTPGKEAVAMESYAKALRMLPTIIADNAGYDSADLVAQLRAAHSEGNTTAGLDMREGTIGDMAILGITESFQVKRQVLLSAAEAAEVILRVDNIIKAAPRKRVPDHHPC
B3: PDIA6 (protein, UniProt Q15084 20-440)
chain: LYSSSDDVIELTPSNFNREVIQSDSLWLVEFYAPWCGHCQRLTPEWKKAATALKDVVKVGAVDADKHHSLGGQYGVQGFPTIKIFGSNKNRPEDYQGGRTGEAIVDAALSALRQLVKDRLGGRSGGYSSGKQGRSDSSSKKDVIELTDDSFDKNVLDSEDVWMVEFYAPWCGHCKNLEPEWAAAASEVKEQTKGKVKLAAVDATVNQVLASRYGIRGFPTIKIFQKGESPVDYDGGRTRSDIVSRALDLFSDNAPPPELLEIINEDIAKRTCEEHQLCVVAVLPHILDTGAAGRNSYLEVLLKLADKYKKKMWGWLWTEAGAQSELETALGIGGFGYPAMAAINARKMKFALLKGSFSEQGINEFLRELSFGRGSTAPVGGGAFPTIVEREPWDGRDGELPVEDDIDLSDVELDDLGKDEL
B4: S100A7 (protein, UniProt P31151 1-101)
chain: MSNTQAERSIIGMIDMFHKYTRRDDKIEKPSLLTMMKENFPNFLSACDKKGTNYLADVFEKKDKNEDKKIDFSEFLSLLGDIATDYHKQSHGAAPCSGGSQ

Each molecule was assayed against recombinant fragment of human surfactant protein D (rfhSP-D) (human) (UniProt P35247) (assay: affinity purification with mass spectrometry; PC3 cells pre-incubated with rfhSP-D (20 µg/ml, 5 mM CaCl2, 2 h, 37°C), washed; membrane protein extract with bound rfhSP-D precipitated with polyclonal anti-human SP-D antibody on protein A/G magnetic beads; eluate depleted of HSA/IgG; LC-MS/MS; only the target purified).
VCP (from UniProt P55072 1-806) was tested, and the binding was “binds”.
With HSP90AB1 (from UniProt P08238 1-724) the binding was “binds”.
“CALR (Calreticulin) (from UniProt P27797 18-417)” was tested, and the binding was “binds”.
For HSPA4 (from UniProt P34932 1-840), the binding was “binds”.
For LCN2 (from UniProt P80188 21-198), the binding was “binds”.
HSPD1 (from UniProt P10809 27-573) was tested, and the binding was “binds”.
With HSP90AA1 (from UniProt P07900 1-732) the binding was “binds”.
In the case of HSP90B1 (from UniProt P14625 22-803), the binding is reported as “binds”.
For CCT5 (from UniProt P48643 1-541), the binding was “binds”.
For LCN1 (from UniProt P31025 19-176), the binding was “binds”.
With HSPA8 (from UniProt P11142 1-646) the binding was “binds”.
With ENO1 (from UniProt P06733 1-434) the binding was “binds”.
HSPA9 (from UniProt P38646 47-679) was tested, and the binding was “binds”.
“C1QBP (C1q receptor, gC1qR) (from UniProt Q07021 74-282)” was tested, and the binding was “binds”.
With “Glucose Regulated Protein of 78 kDa (GRP78), endogenous in PC3 membrane fraction (from UniProt P11021 19-654)” the binding was “binds”.
CCT8 (from UniProt P50990 1-548) was tested, and the binding was “binds”.
In the case of GAPDH (from UniProt P04406 1-335), the binding is reported as “binds”.
In the case of B1, the binding is reported as “binds”.
B2 was tested, and the binding was “binds”.
With B3 the binding was “binds”.
B4 was tested, and the binding was “binds”.
